Literature values, collected in PMC7532004, “Site-specific effects of neurosteroids on GABAA receptor activation and desensitization” (eLife, 2020).
Read-outs that look alike come from different tables or passages of the source.

Molecular target: α1β2γ2 receptors
Settings: read-out: Estimated GABA Kd, ref Chang et al., 2002, cited from earlier work

For `NCCCC(=O)O` [GABA], the Kd (activated α1β2γ2 receptors) is listed as 120 nM, the Kd (desensitized α1β2γ2 receptors) is listed as 40 nM and the Kd (resting α1β2γ2 receptors) is listed as 78500 nM.
